# Data as given in the supplement of paper PMC8728848.
# This is one part of the list.
# B1: AntigenI/IIC123 (Streptococcus mutans), C9E3B4 (protein)
# chain: MASMTGGQQMGRIHFHYFKLAVQPQVNKEIRNNNDINIDRTLVAKQSVVKFQLKTADLPAGRDETTSFVLVDPLPSGYQFNPEATKAASPGFDVTYDNATNTVTFKATAATLATFNADLTKSVATIYPTVVGQVLNDGATYKNNFTLTVNDAYGIKSNVVRVTTPGKPNDPDNPNNNYIKPTKVNKNENGVVIDGKTVLAGSTNYYELTWDLDQYKNDRSSADTIQKGFYYVDDYPEEALELRQDLVKITDANGNEVTGVSVDNYTNLEAAPQEIRDVLSKAGIRPKGAFQIFRADNPREFYDTYVKTGIDLKIVSPMVVKKQMGQTGGSYENQAYQIDFGNGYASNIIINNVPKINPKKDVTLTLDPADTNNVDGQTIPLNTVFNYRLIGGIIPADHSEELFEYNFYDDYDQTGDHYTGQYKVFAKVDITFKDGSIIKSGAELTQYTTAEVDTAKGAITIKFKEAFLRSVSIDSAFQAESYIQMKRIAVGTFENTYINTVNGVTYSSLEHHHHHH
# What was measured:
# Experiment in all cases: glycan array binding signal (z-score within array); higher = stronger binding
# Details in all cases: glycan notation: IUPAC condensed, linker removed
# Fuc(a1-2)Gal = molecular target: Fuc(a1-2)Gal
# How it was run: (§1)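 The binding signal is a Z-score computed within each array. Data were drawn from 3228 arrays in the Consortium for Functional Glycomics database, restricted to those with a known protein sequence. Scores were averaged over arrays of the same protein sequence at different concentrations or buffers, and over linkers, and negative values can be taken as non-binding.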
# Fuc(a1-2)Gal(b1-3)GalNAc = molecular target: Fuc(a1-2)Gal(b1-3)GalNAc
# How it was run: as §1
# [1] = molecular target: Fuc(a1-2)Gal(b1-3)GalNAc(a1-3)[Fuc(a1-2)]Gal(b1-4)Glc
# How it was run: as §1
# [2] = molecular target: Fuc(a1-2)Gal(b1-3)GalNAc(a1-3)[Fuc(a1-2)]Gal(b1-4)GlcNAc
# How it was run: as §1
# [3] = molecular target: Fuc(a1-2)Gal(b1-3)GalNAc(b1-3)Gal
# How it was run: as §1
# [4] = molecular target: Fuc(a1-2)Gal(b1-3)GalNAc(b1-3)Gal(a1-4)Gal(b1-4)Glc
# How it was run: as §1
# [5] = molecular target: Fuc(a1-2)Gal(b1-3)GalNAc(b1-4)[Neu5Ac(a2-3)]Gal(b1-4)Glc
# How it was run: as §1
# Fuc(a1-2)Gal(b1-3)GlcNAc = molecular target: Fuc(a1-2)Gal(b1-3)GlcNAc
# How it was run: as §1
# [6] = molecular target: Fuc(a1-2)Gal(b1-3)GlcNAc(b1-2)Man(a1-3)[Fuc(a1-2)Gal(b1-3)GlcNAc(b1-2)Man(a1-6)]Man(b1-4)GlcNAc(b1-4)GlcNAc
# How it was run: as §1
# [7] = molecular target: Fuc(a1-2)Gal(b1-3)GlcNAc(b1-2)Man(a1-3)[Fuc(a1-2)Gal(b1-3)GlcNAc(b1-2)Man(a1-6)]Man(b1-4)GlcNAc(b1-4)[Fuc(a1-6)]GlcNAc
# How it was run: as §1
# [8] = molecular target: Fuc(a1-2)Gal(b1-3)GlcNAc(b1-3)Gal(b1-4)Glc
# How it was run: as §1
# [9] = molecular target: Fuc(a1-2)Gal(b1-3)GlcNAc(b1-3)GalNAc
# How it was run: as §1
# [10] = molecular target: Fuc(a1-2)Gal(b1-3)GlcNAc(b1-3)[Fuc(a1-2)Gal(b1-3)GlcNAc(b1-6)]GalNAc
# How it was run: as §1
# [11] = molecular target: Fuc(a1-2)Gal(b1-3)GlcNAc(b1-3)[Gal(b1-4)GlcNAc(b1-6)]Gal(b1-4)Glc
# How it was run: as §1
# [12] = molecular target: Fuc(a1-2)Gal(b1-3)GlcNAc(b1-3)[Neu5Ac(a2-6)Gal(b1-4)GlcNAc(b1-6)]Gal(b1-4)Glc
# How it was run: as §1
# [13] = molecular target: Fuc(a1-2)Gal(b1-3)GlcNAc6S
# How it was run: as §1
# [14] = molecular target: Fuc(a1-2)Gal(b1-3)[Fuc(a1-4)]GlcNAc
# How it was run: as §1
# [15] = molecular target: Fuc(a1-2)Gal(b1-3)[Fuc(a1-4)]GlcNAc(b1-2)Man(a1-3)[Fuc(a1-2)Gal(b1-3)[Fuc(a1-4)]GlcNAc(b1-2)Man(a1-3)]Man(b1-4)GlcNAc(b1-4)GlcNAc
# How it was run: as §1
# [16] = molecular target: Fuc(a1-2)Gal(b1-3)[Fuc(a1-4)]GlcNAc(b1-2)Man(a1-3)[Fuc(a1-2)Gal(b1-3)[Fuc(a1-4)]GlcNAc(b1-2)Man(a1-6)]Man(b1-4)GlcNAc(b1-4)[Fuc(a1-6)]GlcNAc(b1-4)[Fuc(a1-6)]GlcNAc
# How it was run: as §1
# [17] = molecular target: Fuc(a1-2)Gal(b1-3)[Fuc(a1-4)]GlcNAc(b1-3)[Fuc(a1-3)[Gal(b1-4)]GlcNAc(b1-6)]Gal(b1-4)Glc
# How it was run: as §1
# [18] = molecular target: Fuc(a1-2)Gal(b1-3)[Fuc(a1-4)]GlcNAc(b1-3)[Gal(b1-4)GlcNAc(b1-6)]Gal(b1-4)Glc
# How it was run: as §1
# [19] = molecular target: Fuc(a1-2)Gal(b1-4)Fuc(a1-3)]GlcNAc(b1-2)Man(a1-3)[Fuc(a1-2)Gal(b1-4)[Fuc(a1-3)]GlcNAc(b1-2)Man(a1-6)]Man(b1-4)GlcNAc(b1-4)GlcNAc
# How it was run: as §1
# Fuc(a1-2)Gal(b1-4)Glc = molecular target: Fuc(a1-2)Gal(b1-4)Glc
# How it was run: as §1
# Fuc(a1-2)Gal(b1-4)Glc6S = molecular target: Fuc(a1-2)Gal(b1-4)Glc6S
# How it was run: as §1
# Fuc(a1-2)Gal(b1-4)GlcNAc = molecular target: Fuc(a1-2)Gal(b1-4)GlcNAc
# How it was run: as §1
# [20] = molecular target: Fuc(a1-2)Gal(b1-4)GlcNAc(b1-2)Man
# How it was run: as §1
# [21] = molecular target: Fuc(a1-2)Gal(b1-4)GlcNAc(b1-2)Man(a1-3)[Fuc(a1-2)Gal(b1-4)GlcNAc(b1-2)Man(a1-6)]Man(b1-4)GlcNAc(b1-4)GlcNAc
# How it was run: as §1
# [22] = molecular target: Fuc(a1-2)Gal(b1-4)GlcNAc(b1-2)Man(a1-3)[Fuc(a1-2)Gal(b1-4)GlcNAc(b1-2)Man(a1-6)]Man(b1-4)GlcNAc(b1-4)[Fuc(a1-6)]GlcNAc
# How it was run: as §1
# [23] = molecular target: Fuc(a1-2)Gal(b1-4)GlcNAc(b1-2)[Fuc(a1-2)Gal(b1-4)GlcNAc(b1-4)]Man(a1-3)[Fuc(a1-2)Gal(b1-4)GlcNAc(b1-2)Man(a1-6)]Man(b1-4)GlcNAc(b1-4)GlcNAc
# How it was run: as §1
# [24] = molecular target: Fuc(a1-2)Gal(b1-4)GlcNAc(b1-3)Gal(b1-4)GlcNAc
# How it was run: as §1
# [25] = molecular target: Fuc(a1-2)Gal(b1-4)GlcNAc(b1-3)Gal(b1-4)GlcNAc(b1-2)Man(a1-3)[Fuc(a1-2)Gal(b1-4)GlcNAc(b1-3)Gal(b1-4)GlcNAc(b1-2)Man(a1-6)]Man(b1-4)GlcNAc(b1-4)GlcNAc
# How it was run: as §1
# [26] = molecular target: Fuc(a1-2)Gal(b1-4)GlcNAc(b1-3)Gal(b1-4)GlcNAc(b1-3)Gal(b1-4)GlcNAc
# How it was run: as §1
# [27] = molecular target: Fuc(a1-2)Gal(b1-4)GlcNAc(b1-3)GalNAc
# How it was run: as §1
# [28] = molecular target: Fuc(a1-2)Gal(b1-4)GlcNAc(b1-3)[Fuc(a1-2)Gal(b1-4)GlcNAc(b1-6)]GalNAc
# How it was run: as §1
# [29] = molecular target: Fuc(a1-2)Gal(b1-4)GlcNAc(b1-3)[Fuc(a1-3)[Gal(b1-4)]GlcNAc(b1-6)]Gal(b1-4)Glc
# How it was run: as §1
# [30] = molecular target: Fuc(a1-2)Gal(b1-4)GlcNAc(b1-6)GalNAc
# How it was run: as §1
# [31] = molecular target: Fuc(a1-2)Gal(b1-4)GlcNAc6S
# How it was run: as §1
# [32] = molecular target: Fuc(a1-2)Gal(b1-4)[Fuc(a1-3)]GlcNAc
# How it was run: as §1
# [33] = molecular target: Fuc(a1-2)Gal(b1-4)[Fuc(a1-3)]GlcNAc(b1-2)Man(a1-3)[Fuc(a1-2)Gal(b1-4)[Fuc(a1-3)]GlcNAc(b1-2)Man(a1-6)]Man(b1-4)GlcNAc(b1-4)[Fuc(a1-6)]GlcNAc
# How it was run: as §1
# [34] = molecular target: Fuc(a1-2)Gal(b1-4)[Fuc(a1-3)]GlcNAc(b1-2)[Fuc(a1-2)Gal(b1-4)[Fuc(a1-3)]GlcNAc(b1-4)]Man(a1-3)[Fuc(a1-2)Gal(b1-4)[Fuc(a1-3)]GlcNAc(b1-2)Man(a1-6)]Man(b1-4)GlcNAc(b1-4)GlcNAc
# How it was run: as §1
# [35] = molecular target: Fuc(a1-2)Gal(b1-4)[Fuc(a1-3)]GlcNAc(b1-3)Gal(b1-4)[Fuc(a1-3)]GlcNAc
# How it was run: as §1
# [36] = molecular target: Fuc(a1-2)Gal(b1-4)[Fuc(a1-3)]GlcNAc(b1-3)Gal(b1-4)[Fuc(a1-3)]GlcNAc(b1-3)Gal(b1-4)[Fuc(a1-3)]GlcNAc
# How it was run: as §1
# [37] = molecular target: Fuc(a1-2)Gal(b1-4)[Fuc(a1-3)]GlcNAc(b1-3)GalNAc
# How it was run: as §1
# [38] = molecular target: Fuc(a1-2)Gal(b1-4)[Fuc(a1-3)]GlcNAc(b1-3)[Neu5Ac(a2-6)Gal(b1-4)GlcNAc(b1-6)]Gal(b1-4)Glc
# How it was run: as §1
# [39] = molecular target: Fuc(a1-2)Gal3S(b1-4)GlcNAc
# How it was run: as §1
binder,measurement,setting,value
B1,glycan array binding signal (z-score),Fuc(a1-2)Gal,0.238
same,glycan array binding signal (z-score),Fuc(a1-2)Gal(b1-3)GalNAc,-0.572
same,glycan array binding signal (z-score),[1],-0.468
same,glycan array binding signal (z-score),[2],0.234
same,glycan array binding signal (z-score),[3],-0.622
same,glycan array binding signal (z-score),[4],0.182
same,glycan array binding signal (z-score),[5],-0.432
same,glycan array binding signal (z-score),Fuc(a1-2)Gal(b1-3)GlcNAc,-0.691
same,glycan array binding signal (z-score),[6],1.44
same,glycan array binding signal (z-score),[7],2.08
same,glycan array binding signal (z-score),[8],-0.259
same,glycan array binding signal (z-score),[9],1.04
same,glycan array binding signal (z-score),[10],3.07
same,glycan array binding signal (z-score),[11],-0.6
same,glycan array binding signal (z-score),[12],0.012
same,glycan array binding signal (z-score),[13],-0.232
same,glycan array binding signal (z-score),[14],-0.746
same,glycan array binding signal (z-score),[15],-0.139
same,glycan array binding signal (z-score),[16],0.04
same,glycan array binding signal (z-score),[17],-0.898
same,glycan array binding signal (z-score),[18],-0.704
same,glycan array binding signal (z-score),[19],0.084
same,glycan array binding signal (z-score),Fuc(a1-2)Gal(b1-4)Glc,-0.774
same,glycan array binding signal (z-score),Fuc(a1-2)Gal(b1-4)Glc6S,-0.994
same,glycan array binding signal (z-score),Fuc(a1-2)Gal(b1-4)GlcNAc,0.093
same,glycan array binding signal (z-score),[20],0.778
same,glycan array binding signal (z-score),[21],0.723
same,glycan array binding signal (z-score),[22],-0.935
same,glycan array binding signal (z-score),[23],-0.219
same,glycan array binding signal (z-score),[24],-0.647
same,glycan array binding signal (z-score),[25],2.08
same,glycan array binding signal (z-score),[26],-0.137
same,glycan array binding signal (z-score),[27],-0.452
same,glycan array binding signal (z-score),[28],0.055
same,glycan array binding signal (z-score),[29],-0.804
same,glycan array binding signal (z-score),[30],3.81
same,glycan array binding signal (z-score),[31],-0.544
same,glycan array binding signal (z-score),[32],0.474
same,glycan array binding signal (z-score),[33],1.36
same,glycan array binding signal (z-score),[34],0.933
same,glycan array binding signal (z-score),[35],-0.165
same,glycan array binding signal (z-score),[36],1.4
same,glycan array binding signal (z-score),[37],0.885
same,glycan array binding signal (z-score),[38],-1.45
same,glycan array binding signal (z-score),[39],-0.555

# 8 neighbouring records out of the list so far, quoted:
binder,measurement,setting,value
B1,glycan array binding signal (z-score),Fuc(a1-2)Gal(b1-3)GalNAc,-0.572
same,glycan array binding signal (z-score),[1],-0.468
same,glycan array binding signal (z-score),[2],0.234
same,glycan array binding signal (z-score),[3],-0.622
same,glycan array binding signal (z-score),[4],0.182
same,glycan array binding signal (z-score),[5],-0.432
same,glycan array binding signal (z-score),Fuc(a1-2)Gal(b1-3)GlcNAc,-0.691
same,glycan array binding signal (z-score),[6],1.44
